Data as given in PubChem BioAssay AID1159578 (Peter MacCallum Cancer Centre, 2015)
This is an unselected part of about 18,000 reagents. About 1,030 of them (5.7%) count as active. 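Inactive calls also include pools with fewer than 3300 nuclei, whose migration was not assessed.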 Raw values are not corrected between plates. Further read-outs or replicates are left out here.

- Screen: 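Genome-wide hunt for genes controlling movement of lymphatic endothelial cells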 (primary screen)
- Cells: human lymphatic endothelial cells
- Reagents: siRNA pool against human genes, 40 nM
- Duration: 48 h after transfection
- Measurement: 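Cells stained with dye and imaged after a scratch; covered wound area and nuclei counted, duplicates averaged, migration set against mock wells and turned into a robust z-score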
- Direction: migration robust z-score: higher = faster migration into the scratch; nuclei per well: higher = more cells in the well
- Hit rule: 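Migration changed when robust z exceeds 2 or falls below -2 and mean nuclei number is at least 3300; otherwise not called changed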
- Calls: active = migration changed; inactive = no migration change, or too few cells

CRYGA (crystallin gamma A) | migration robust z-score: 0.44; nuclei per well, duplicate mean: 4570; call: inactive
IL12RB2 (interleukin 12 receptor subunit beta 2) | migration robust z-score: -0.62; nuclei per well, duplicate mean: 6208; call: inactive
PYCARD (PYD and CARD domain containing) | migration robust z-score: 0.34; nuclei per well, duplicate mean: 5832; call: inactive
ENTPD7 (ectonucleoside triphosphate diphosphohydrolase 7) | migration robust z-score: -0.46; nuclei per well, duplicate mean: 3076; call: inactive
GRM2 (glutamate metabotropic receptor 2) | migration robust z-score: 0.08; nuclei per well, duplicate mean: 5364; call: inactive
SERPINB5 (serpin family B member 5) | migration robust z-score: 0.94; nuclei per well, duplicate mean: 6063; call: inactive

An excerpt taken from the entries so far:
ENTPD7 (ectonucleoside triphosphate diphosphohydrolase 7) | migration robust z-score: -0.46; nuclei per well, duplicate mean: 3076; call: inactive
GRM2 (glutamate metabotropic receptor 2) | migration robust z-score: 0.08; nuclei per well, duplicate mean: 5364; call: inactive

Continued.
ODAD1 (outer dynein arm docking complex subunit 1) | migration robust z-score: -1.98; nuclei per well, duplicate mean: 5660; call: inactive
LRP5 (LDL receptor related protein 5) | migration robust z-score: -0.68; nuclei per well, duplicate mean: 5254; call: inactive
CYB561 (cytochrome b561) | migration robust z-score: -1.01; nuclei per well, duplicate mean: 6172; call: inactive
CSNK1G1 (casein kinase 1 gamma 1) | migration robust z-score: 0.86; nuclei per well, duplicate mean: 5798; call: inactive
TEAD3 (TEA domain transcription factor 3) | migration robust z-score: 0.57; nuclei per well, duplicate mean: 5835; call: inactive
RNF126 (ring finger protein 126) | migration robust z-score: -0.23; nuclei per well, duplicate mean: 6407; call: inactive
